Counter-ions that a name gives are not always drawn. ± gives the standard deviation of the averaged measurements. The list shows a part of the results. Baselines shift from plate to plate; read single values as rough.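 The cells are a mouse kidney inner medullary collecting duct line, silenced either for the ciliary gene Rpgrip1l or with a non-targeting control siRNA.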
How the values were obtained:
mIMCD3 [1] = experiment: robust z score of cell number vs plate controls; higher = more cells (less cytotoxic); details: 10 µM, 48 h
mIMCD3 [2] = experiment: robust z score of cilia incidence (% cells with single cilium) vs plate controls; higher = more ciliated cells; details: 10 µM; 48 h; siRNA: siScr
mIMCD3 [3] = experiment: robust z score of cilia incidence (% cells with single cilium) vs plate controls; higher = more ciliated cells (rescue of cilia loss); details: 10 µM; 48 h; siRNA: siRpgrip1l

SMILES | robust z score of cell number (mIMCD3 [1]; siRNA: siRpgrip1l) | robust z score of cell number (mIMCD3 [1]; siRNA: siScr) | robust z score of cilia incidence (mIMCD3 [2]) | robust z score of cilia incidence (mIMCD3 [3])
CN1CCc2cccc3c2[C@H]1Cc1ccc(O)c(O)c1-3 [(R)-(-)-Apomorphine hydrochloride] | -51.3 ± 43 | -45.7 ± 0.71 | -59 ± 11 | -37.7 ± 4
Cn1cnnc1Sc1c([N+](=O)[O-])ncn1C | -11.8 ± 6.4 | -38.2 ± 23 | -2.77 ± 2.5 | -19.3 ± 1.7
COc1ccccc1N1CCN(CCCNc2cc(=O)n(C)c(=O)n2C)CC1 [Urapidil hydrochloride] | -3.72 ± 5.6 | -5.88 ± 2.6 | -4.46 ± 2.3 | -15.7 ± 9.6
CCc1ccc2c(-c3cccc(Cl)c3)nc(=O)n(CC)c2n1 | -0.894 ± 2 | -4.24 ± 0.84 | -10.1 ± 1.6 | -34.6 ± 22
CN(N=O)C(=O)N[C@@H](C=O)[C@@H](O)[C@H](O)[C@H](O)CO [Streptozocin] | -19.9 ± 26 | -0.217 ± 0.54 | -0.49 ± 0.66 | -129 ± 92
O=C(O)C(=O)O.[NH-][C@@H]1CCCC[C@H]1[NH-].[Pt+2] [Oxaliplatin] | -23.6 ± 8.4 | -96.9 ± 77 | -16.4 ± 0.79 | -27.56 ± 0.25
O=C(NCCCCN1CCN(c2cccc(Cl)c2Cl)CC1)c1ccc2c(c1)Cc1ccccc1-2 | -14.6 ± 6 | -69.5 ± 64 | -21.7 ± 8.9 | -31.4 ± 3.2
CC(C)NCC(O)COc1ccc(CC(N)=O)cc1 (racemic) [(RS)-Atenolol] | 1.83 ± 4 | -6.02 ± 1.6 | 1.01 ± 0.38 | -9.54 ± 6
Nc1ccc(-c2nc3ccc(-c4nc5ccc(N)cc5[nH]4)cc3[nH]2)cc1 | -4.75 ± 3.5 | -1.93 ± 0.25 | 0.741 ± 0.58 | -8.28 ± 6.4
COc1cc2c(cc1OC)-c1cc3nc4ccccc4nc3n1C(C)(C)C2 | -34.5 ± 30 | -34.9 ± 21 | -25 ± 6.3 | -44.1 ± 34
N[C@H]1CCN(O)C1=O | 12.2 ± 14 | -0.635 ± 3.5 | -2.17 ± 1.7 | -12.2 ± 12

From the supplement of paper PMC12009310
